Measurements reported in PubChem BioAssay AID686943 (Drosophila RNAi Screening Center, 2013).
Aim: 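Knockdowns that increase or decrease active ERK after insulin receptor stimulation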 (primary screen). Cells: Drosophila S2R+ haemocyte-like cells expressing YFP-tagged ERK (Rolled). Knock-down reagent: long dsRNA against Drosophila genes. Challenge: insulin stimulation versus unstimulated cells; dose and duration not given. Detection: 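Antibody staining for doubly phosphorylated ERK divided by ERK-YFP signal, as plate z-scores, in insulin-treated and untreated cells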. Scale: replicate 1, z-score of dpERK with insulin: higher = more active ERK per ERK-YFP after insulin.
In all, the deposit lists about 23,000 reagents; this is a random part of those that have a named target and a result. 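Extra replicates exist only for a retested subset of genes; insulin dose and duration not given; both raised and lowered dpERK matter.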 Further read-outs or replicates are left out here. Reagent sequences are not shown. Not stated in the record: the amount of reagent, the time to read-out.

CG4789 [DRSC19918] showed replicate 1, z-score of dpERK with insulin -0.17. Against Sik2 [DRSC18522], the values are replicate 1, z-score of dpERK with insulin 0.09. For Elba3 [DRSC00469], the values are replicate 1, z-score of dpERK with insulin 0.95. After knock-down of Nazo [DRSC14343] the results were replicate 1, z-score of dpERK with insulin -0.92. With knock-down of CG10984 [DRSC09817] the results were replicate 1, z-score of dpERK with insulin 1.76. For CG42857 [DRSC12750], the values are replicate 1, z-score of dpERK with insulin -0.07.

After knock-down of CG1288 [DRSC12538], the record shows replicate 1, z-score of dpERK with insulin -0.9. CG4770 [DRSC15639] showed replicate 1, z-score of dpERK with insulin -0.23. Silencing of CG12605 [DRSC08286] gave: replicate 1, z-score of dpERK with insulin 2.07. For bumpel [DRSC16100], the values are replicate 1, z-score of dpERK with insulin 1.16. Silencing of CG8468 [DRSC07190] came out at: replicate 1, z-score of dpERK with insulin -0.75.

Single entries from the entries so far.
Under “replicate 1, z-score of dpERK with insulin”, CG4789 [DRSC19918] shows -0.17
Entry for CG10984 [DRSC09817] in “replicate 1, z-score of dpERK with insulin”: 1.76

The results go on.
Knock-down of XRCC1 [DRSC18729] gave: replicate 1, z-score of dpERK with insulin -0.19. After knock-down of ITP [DRSC04222], the record shows replicate 1, z-score of dpERK with insulin -0.24. Knock-down of Tengl1 [DRSC00481] gave: replicate 1, z-score of dpERK with insulin -0.3. For larp [DRSC14728], the values are replicate 1, z-score of dpERK with insulin 0.46. Depletion of larp [DRSC16984] came out at: replicate 1, z-score of dpERK with insulin -0.38. For larp [DRSC21856], the entry reads replicate 1, z-score of dpERK with insulin -0.09.

Knock-down of CG3857 [DRSC18542] gave: replicate 1, z-score of dpERK with insulin -0.57. Depletion of loopin-1 [DRSC06888] resulted in: replicate 1, z-score of dpERK with insulin -0.24. Knock-down of Prp6 [DRSC10724] came out at: replicate 1, z-score of dpERK with insulin 0.06. Depletion of Prp6 [DRSC21773] came out at: replicate 1, z-score of dpERK with insulin 2.27.
